Source: patent US5595999A, “Guanidine derivatives” (Hoffmann-La Roche Inc., priority 1990, dated 1997)

What follows are compounds tested on trypsin (assay: Inhibition of amidolytic activity of trypsin (chromogenic substrate S-2251)). Settings: Ki trypsin / Ki thrombin; specificity.
Type: biochemical
Method: A differential inhibition of thrombin and other serine proteases by the above compounds is desirable in order to obtain compounds having as high a specificity as possible and at the same time to avoid possible side-effects.
Specific chromogenic peptide substrates can be used to determine the inhibition of the catalytic activity of the above proteases. The inhibition of the amidolytic activity of thrombin and trypsin by the above guanidines was determined as described hereinafter.
The measurements were carried out on microtiter plates at room temperature. For this, in each well of the plate 150 μl of buffer (50 mM Tris, 100 mM NaCl, 0.1% polyethylene glycol; pH 7.8) were mixed with 50 μl of the inhibitor dissolved in DMSO and diluted in the buffer, and 25 μl of human thrombin (0.5 nM final conc.) were added. After incubation for 10 minutes, the reaction was started by the addition of chromogenic substrate S-2238 (H-D-Phe-Pip-Arg-paranitroaniline from Kabivitrum; 10 or 50 μm final conc.) and the hydrolysis of the substrate was followed spectrophotometrically on a kinetic microliter plate reader for 5 minutes. After graphical presentation of the inhibition curves, the Ki values were determined according to the method described in Biochem. J. 55, 1955, 170-171. The inhibition of trypsin was effected analogously, but using the substrate S-2251 (H-D-Val-Leu-Lys-paranitroaniline) in 200 and 750 μM final concentration.

SMILES | q (ratio of the inhibition of trypsin to the inhibition of thrombin)
N=C(N)N1CCCC(CNC(=O)[C@@H](Cc2ccccc2[N+](=O)[O-])NS(=O)(=O)c2ccc3ccccc3c2)C1 (mixture of isomers) [Example 13a, (R)-N-[(RS)-1-Amidino-3-piperidinylmethyl]-α-(2-naphthylsulfonamido)-o-nitrohydrocinnamamide] | 1400
N=C(N)N1CCCC(CNC(=O)[C@@H](CN2C(=O)C(=O)c3ccccc32)NS(=O)(=O)c2ccc3ccccc3c2)C1 (stereo partly shown) [Example 8] | 2350
N=C(N)N1CCC[C@@H](CNC(=O)[C@@H](Cc2ccc([N+](=O)[O-])cc2)NS(=O)(=O)c2ccc(I)cc2)C1 [Example 17j, (R)-N-[(S)-1-Amidino-3-piperidinylmethyl]-α-(p-iodo-benzenesulfonamido)-p-nitrohydrocinnamamide] | 565
N=C(N)N1CCCC(CNC(=O)[C@@H](Cc2ccccc2)NS(=O)(=O)c2ccc3ccccc3c2)C1 (stereo partly drawn) [Example 9, (R)-N-[(RS)-1-amidino-3-piperidinylmethyl]-α-(2-naphthylsulfonamido)hydrocinnamide] | 1250
N=C(N)N1CCC[C@@H](CNC(=O)[C@@H](Cc2c[nH]c3ccccc23)NS(=O)(=O)c2ccc(I)cc2)C1 [Example 17b, (R)-N-[(S)-1-Amidino-3-piperidinylmethyl]-α-(p-iodobenzenesulfonamido)indole-3-propionamide] | 304
N=C(N)N1CCCC(CNC(=O)[C@@H](Cc2c[nH]c3ccccc23)NS(=O)(=O)c2ccccc2[N+](=O)[O-])C1 (mixture of isomers) [Example 14i, (R)-N-[(RS)-1-Amidino-3-piperidinylmethyl]-α-(o-nitrobenzenesulfonamido)indole-3-propionamide] | 1520
N=C(N)N1CCC[C@@H](COC(=O)[C@@H](Cc2c[nH]c3ccccc23)NS(=O)(=O)c2ccc(I)cc2)C1 [Example 17c, N-(p-Iodophenylsulfonyl)-D-tryptophan (R)-1-amidino-3-piperidinylmethyl ester] | 172
